Results taken from PubChem BioAssay AID1259415 (National Center for Advancing Translational Sciences (NCATS), 2018).
Hit rate of the full screen: of about 410,000 compounds, about 18,000 (4.4%) were called active. The inconclusive results got no clear call from the source; some entries with a clear call stand among them for comparison. Rule as the data show it: active = activity change below about -60%; inconclusive = no clear call, values can overlap the other calls; inactive = above about -39%.

Experiment: qHTS Assay for inhibitors of the human cytomegalovirus (HCMV)
Settings: HFF cells, HCMV-luciferase reporter, 72 h; at 57.5 µM; active compounds read low
Outline: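 Steps: HFFs plated, 16 h 37C; compounds added; HCMV-luciferase added to MOI 1 PFU/cell; 72 h 37C; OneGlo reagent, 5 min room temperature; luminescence read, normalized to controls.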
% is scaled to controls: 0 for no effect and ±100 for the full control effect.

SMILES | activity change, negative = inhibition
c1cncc(-c2nn3c(Cn4nnc5ccccc54)nnc3s2)c1 | inactive: 35.6%
COc1ccc(-c2cc(C(=O)NCC(C)C)no2)cc1 | inactive: 142%
CCN(CC)CCNC(=O)C1(O)c2cc(Br)ccc2NC(=O)N1c1cccc(OC)c1 (centres undefined) | inconclusive: -41.5%
CC(CC(F)(F)F)N1CCC(n2nccc2NC(=O)CCOc2ccccc2)CC1 (centres undefined) | inconclusive: -43.2%
C#CCN(C[C@@H]1[C@@H](OC(=O)Nc2cccs2)[C@@H](OC(=O)Nc2cccs2)Cn2c(=O)n(CCCCCC)c(=O)n21)S(=O)(=O)c1ccc(C)cc1 | inconclusive: -40.6%
O=C(NCc1cccc(F)c1)c1ccc(-n2cnc3cccnc32)cc1 | inconclusive: 0%
Cc1cccc(Cn2cc(C(=O)Nc3ccc(F)c(C(F)(F)F)c3)ccc2=O)c1 | inconclusive: -52.6%
OCCN1CCN(c2ncnc3c2ncn3[C@H]2CN(Cc3ccc(Cl)cc3)C[C@@H](CO)O2)CC1 | inconclusive: -45.6%
COc1ccc(CNC(=O)C(CC(C)C)NC(=O)c2ccccc2C)cc1 (centres undefined) | inactive: -36.8%
CC(C)(C)C(=O)N1CCN(c2ccnc3cc(Cl)ccc23)CC1 | active: -98.2%
O=C(CN1CCCc2ccccc21)NC(=O)NC1CCCCC1 | inconclusive: -49.6%
CC(=O)Nc1ccc(-c2csc(NCCc3ccccc3)n2)cc1 | inconclusive: -40.6%
CCOc1ccc2nc(NC(=O)c3ccc(OCC4CCCO4)cc3)sc2c1 (centres undefined) | inconclusive: -57%
CC(C)(C)c1ccc(OC(=O)c2ccc3nsnc3c2)cc1 | inactive: -21.8%
COc1ccc(C2Sc3ccccc3NC3=C2C(=O)c2ccccc23)c(OC)c1OC (centres undefined) | active: -74.4%
COc1ccc(NC(=O)CCNS(=O)(=O)c2cccc3nsnc23)cc1 | inconclusive: -48.5%
CC(C)(C)c1ccc(C(=O)Nc2cccc(C(=O)N3CCOCC3)c2)cc1 | inconclusive: -53.2%
Cc1c(NS(=O)(=O)c2ccccc2F)c(=O)n(-c2ccccc2)n1C | inactive: -23%
COC(=O)CCCCCN1C(=O)NC(c2ccc(-c3ccccc3)cc2)C(C(=O)OCc2ccccc2)=C1C (centres undefined) | inactive: 19.6%
COCCNC(=O)c1cccc(OC2CCN(Cc3ccc(F)cc3OC)CC2)c1 | inactive: -1.73%
O=C1CCCC2=C1C(c1ccc(Cl)cc1)C1C(=O)c3ccccc3C1=N2 (centres undefined) | active: -70.4%
CCn1cc(CCCC(=O)NCc2ccc(OC)cc2)c2ccccc21 | inactive: 11%

Not a retest: four of the compounds above.
SMILES | activity change, negative = inhibition
OCCN1CCN(c2ncnc3c2ncn3[C@H]2CN(Cc3ccc(Cl)cc3)C[C@@H](CO)O2)CC1 | inconclusive: -45.6%
COc1ccc(CNC(=O)C(CC(C)C)NC(=O)c2ccccc2C)cc1 (centres undefined) | inactive: -36.8%
CC(C)(C)C(=O)N1CCN(c2ccnc3cc(Cl)ccc23)CC1 | active: -98.2%
O=C(CN1CCCc2ccccc21)NC(=O)NC1CCCCC1 | inconclusive: -49.6%

Next compounds:

SMILES | activity change, negative = inhibition
Cc1cc(N2CCN(Cc3nc(-c4ccc(Cl)cc4)oc3C)CC2)cc(C)n1 | inconclusive: -41.1%
O=C(O)C1CC2CCC1CC2 (centres undefined) | inactive: -24.4%
CCN(C(=O)Cn1nc(Cc2cccnc2)c2ccccc2c1=O)c1ccccc1F | inconclusive: -58.7%
Cc1ccc(S(=O)(=O)N2CCCC2C(=O)Nc2ccc(O)cc2)cc1 (centres undefined) | inactive: -13%
CCc1ccccc1NC(=O)Cn1c(-c2nonc2N)nc2ccccc21 | inactive: 59.8%
CCC1=NN(C(=O)c2ccc(Cl)cc2)C(O)(c2ccc(C)cc2)C1 (centres undefined) | inactive: 13.7%
Cc1noc(C)c1C(=O)NCc1ccccc1Br | inactive: -7.35%
O=C(NCCc1csc(-c2ccc(Cl)cc2)n1)c1cccs1 | inconclusive: -49%
O=C(COc1ccccc1)Nc1nnc(-c2ccccc2Cl)o1 | inconclusive: -45.7%
CC(=O)Oc1ccccc1C(=O)C=Cc1cccc([N+](=O)[O-])c1 | active: -77%
COC(=O)C1=CO[C@@H](C)[C@@H]2CN3CC[C@]4(C(=O)Nc5ccccc54)[C@@H]3C[C@H]12 | inconclusive: -49.2%
CCOC(=O)c1c(C)n(Cc2ccco2)c2ccc(OC)cc12 | inactive: -8.39%
Cc1ccc2nc(SCC(=O)c3c(N)n(C)c(=O)n(C)c3=O)[nH]c2c1 | inconclusive: -47.8%
O=C(c1ccc2c3c(cccc13)CC2)N1CCN(c2ncccn2)CC1 | inconclusive: -45%
CC(C)(C)c1ccc(OCc2nc(-c3ccccn3)no2)c(Br)c1 | inactive: 322%
CCN1C(=O)/C(=C\N(C)C)S/C1=N\S(=O)(=O)c1ccccc1 | inconclusive: -52.8%
O=C(NCC(c1cccs1)N1CCOCC1)c1ccccc1NS(=O)(=O)c1ccc(Cl)cc1 (centres undefined) | inconclusive: -58.8%
Nc1nc2c(-c3ccc([N+](=O)[O-])cc3)nnn2c2ccccc12 | inactive: -15.8%
COc1ccc(/C=N/NC(=O)COc2ccc(Cl)cc2Cl)cc1Cn1nc(C)cc1C | inconclusive: -52.1%
Cn1c(SCC(=O)Nc2ccccc2F)nc2c(c1=O)SCC2 | inactive: -37.7%
N#CC(C#N)c1ccnc2ccccc12 | active: -78.1%
CC(=O)c1cc2c(cc1NC(=O)c1c(C)nn(-c3ccc(C)cc3)c1-n1cccc1)OCO2 | inconclusive: -40.1%
